The source of these data is publication PMC5017145.

By UniProt entry, the sequences of proteins in these tests, tags left out.
UniProt P30153: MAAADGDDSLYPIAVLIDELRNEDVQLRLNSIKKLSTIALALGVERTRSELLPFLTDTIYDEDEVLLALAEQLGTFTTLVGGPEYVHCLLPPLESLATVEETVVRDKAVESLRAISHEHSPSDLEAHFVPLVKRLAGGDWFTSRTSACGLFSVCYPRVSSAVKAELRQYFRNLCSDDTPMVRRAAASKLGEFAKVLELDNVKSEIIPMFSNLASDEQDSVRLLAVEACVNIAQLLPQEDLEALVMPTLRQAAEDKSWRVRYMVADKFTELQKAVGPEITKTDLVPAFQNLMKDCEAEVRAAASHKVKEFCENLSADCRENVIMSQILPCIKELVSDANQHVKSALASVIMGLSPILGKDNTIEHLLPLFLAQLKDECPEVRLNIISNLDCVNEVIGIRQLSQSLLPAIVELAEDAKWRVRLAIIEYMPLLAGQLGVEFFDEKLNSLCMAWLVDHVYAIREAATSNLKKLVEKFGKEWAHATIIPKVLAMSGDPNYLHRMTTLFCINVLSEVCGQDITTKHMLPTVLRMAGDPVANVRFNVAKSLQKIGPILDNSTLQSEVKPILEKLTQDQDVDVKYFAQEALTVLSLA
UniProt P62820: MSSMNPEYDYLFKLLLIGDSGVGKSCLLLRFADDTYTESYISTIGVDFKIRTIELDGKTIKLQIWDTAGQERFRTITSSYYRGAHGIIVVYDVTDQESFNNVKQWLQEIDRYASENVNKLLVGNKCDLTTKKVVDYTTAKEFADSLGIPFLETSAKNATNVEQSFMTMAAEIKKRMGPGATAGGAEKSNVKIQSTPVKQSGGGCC
UniProt P61019: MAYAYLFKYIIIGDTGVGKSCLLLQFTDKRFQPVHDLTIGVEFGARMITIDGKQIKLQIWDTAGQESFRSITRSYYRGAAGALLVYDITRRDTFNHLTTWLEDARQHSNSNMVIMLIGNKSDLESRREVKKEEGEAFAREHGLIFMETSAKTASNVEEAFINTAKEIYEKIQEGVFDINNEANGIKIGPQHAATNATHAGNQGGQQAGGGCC

No constants are given. Whether binding was seen depends on the method and setting. Binding seen in cells or lysates may run through a third protein. Here binding means that the protein was enriched with, or labelled near, the bait; the list need not be complete.

This assay concerns the target PPP2R1A, SF-TAP tagged (PP2A scaffold subunit) (UniProt P30153). The assay can be described thus: affinity purification with mass spectrometry; SF-TAP tagged PP2A subunits transiently expressed in HeLa (SF-TAP alone as control); one step Strep-Tactin-Superflow purification; lysis buffer 150 mM NaCl, 50 mM Tris-HCl, 1% Nonidet P-40, 0.25% sodium deoxycholate; SILAC.

Turning to “RAB1A, endogenous (from UniProt P62820 1-205)”, the binding entry is recorded as “binds”.
“RAB2A, endogenous (from UniProt P61019 1-212)”: the binding entry was “binds”.
